Measurements taken from US20060128810A1, “Remedies for allergic diseases” (Kyoto University, priority 2002, published 2006).
For at least one compound, name, drawing or mass did not settle the structure.

System: OVA-sensitized mouse asthma model
Experiment: OVA-sensitized mouse asthma model, number of inflammatory cells in BALF
Format: in vivo, mouse (C57/BL6)
Details: subcutaneous, 200 μg/kg twice a day; FIG. 3
Text: An asthma reaction was induced using a wild-type mouse (C57/BL6) that had previously been sensitized with an antigen of OVA twice (day 0 and day 12) by inhalation sensitization at intervals of four days a total of three times (day 22, day 26, and day 30). Subsequently, the change in the number of inflammatory cells in BALF that was an indicator of an allergic reaction was examined.
That is, a compound having an agonistic activity to EP3 receptor is effective in therapy of an allergic disease such as asthma, and a selective agonistic compound to EP3 receptor can be expected to induce a more remarkable therapeutic effect.

## CS(=O)(=O)NC(=O)CCC/C=C\C[C@H]1C(=O)C[C@@H](O)[C@@H]1/C=C/[C@@H](O)COc1ccccc1 [Sulprostone, 16-phenoxy-ω-17,18,19,20-tetranor-PGE2 methylsulfonamide]
  eosinophil number in BALF: significant effect
